# Data: patent publication US11135306 (dated 2021)
# Test: general procedure: solution-phase peptide synthesis; DEPC/DIPEA; p-nitrophenyl carbonate with HOBt/DIPEA/pyridine
# Details: for conjugation yield: conjugation step
Substance,conjugation yield [%],step yield (late stage modification step) [%]
Boc-hydroxylamino-PEG4-Val-Cit-PAB-MMAE,41,–
alkynyl-PEG4-Val-Cit-PAB-MMAE,45,–
hydroxylamino-PEG4-Val-Cit-PAB-MMAE,–,65
